Source: article PMC5645129
No constants are given. Whether binding was seen depends on the method and setting. In cells and extracts the contact can be indirect. Some entries that bind do so weakly or less than the wild type.

Protein sequences, listed by entry. Tags and fused reporters are not part of them.
UniProt Q8JPY0: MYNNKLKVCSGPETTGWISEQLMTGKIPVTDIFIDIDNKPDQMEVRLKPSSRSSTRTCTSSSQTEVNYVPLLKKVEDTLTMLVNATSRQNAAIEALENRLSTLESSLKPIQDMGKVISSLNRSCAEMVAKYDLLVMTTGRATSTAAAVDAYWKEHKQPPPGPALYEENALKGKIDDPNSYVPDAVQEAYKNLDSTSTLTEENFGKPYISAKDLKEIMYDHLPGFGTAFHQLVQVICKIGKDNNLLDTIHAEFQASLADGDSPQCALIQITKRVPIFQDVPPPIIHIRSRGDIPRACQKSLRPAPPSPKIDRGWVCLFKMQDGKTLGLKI
UniProt Q05127: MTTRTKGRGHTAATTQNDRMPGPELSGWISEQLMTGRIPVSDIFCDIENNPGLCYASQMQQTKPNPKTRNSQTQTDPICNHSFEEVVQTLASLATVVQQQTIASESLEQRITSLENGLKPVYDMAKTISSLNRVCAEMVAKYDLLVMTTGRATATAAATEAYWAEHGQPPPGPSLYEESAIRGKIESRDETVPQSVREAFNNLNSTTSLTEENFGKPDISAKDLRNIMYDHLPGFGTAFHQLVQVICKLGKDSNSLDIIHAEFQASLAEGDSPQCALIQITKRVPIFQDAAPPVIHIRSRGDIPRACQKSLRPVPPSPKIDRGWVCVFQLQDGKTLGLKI
UniProt Q8JPY1: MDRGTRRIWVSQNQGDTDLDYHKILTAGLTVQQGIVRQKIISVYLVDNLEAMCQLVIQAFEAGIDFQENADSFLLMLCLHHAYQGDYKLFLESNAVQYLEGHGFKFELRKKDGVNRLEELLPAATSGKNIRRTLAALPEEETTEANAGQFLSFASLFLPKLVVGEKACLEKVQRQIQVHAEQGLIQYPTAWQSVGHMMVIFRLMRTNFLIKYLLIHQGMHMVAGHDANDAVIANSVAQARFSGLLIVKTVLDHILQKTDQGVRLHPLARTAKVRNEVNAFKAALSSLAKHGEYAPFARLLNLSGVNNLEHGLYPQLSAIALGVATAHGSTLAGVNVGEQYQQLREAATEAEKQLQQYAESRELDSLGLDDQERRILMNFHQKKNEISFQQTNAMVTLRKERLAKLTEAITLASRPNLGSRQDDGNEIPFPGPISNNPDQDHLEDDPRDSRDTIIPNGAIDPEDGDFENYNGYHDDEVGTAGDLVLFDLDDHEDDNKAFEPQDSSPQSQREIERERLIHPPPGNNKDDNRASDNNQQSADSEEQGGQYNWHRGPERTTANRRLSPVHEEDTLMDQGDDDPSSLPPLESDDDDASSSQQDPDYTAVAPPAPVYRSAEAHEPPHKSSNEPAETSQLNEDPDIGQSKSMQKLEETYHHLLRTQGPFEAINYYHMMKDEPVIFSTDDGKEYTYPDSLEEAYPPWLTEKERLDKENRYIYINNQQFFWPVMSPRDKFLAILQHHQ

Assays:
[1] = target: VP35 of Reston virus (RESTV), isolate Pennsylvania (Reston virus (RESTV), isolate Pennsylvania (species Reston ebolavirus)) (UniProt Q8JPY0); test: co-IP
[2] = target: VP35 of Ebola virus (EBOV), isolate Mayinga (Ebola virus (EBOV), isolate Mayinga (species Zaire ebolavirus)) (UniProt Q05127); test: co-IP

Substance	binding [1]	binding [2]
VP35 of Reston virus (RESTV), isolate Pennsylvania (from UniProt Q8JPY0 1-329)	binds	
VP35 of Ebola virus (EBOV), isolate Mayinga (from UniProt Q05127 1-340)		binds
nucleoprotein (NP) of Reston virus (RESTV), isolate Pennsylvania (from UniProt Q8JPY1 1-739)	binds	
